Results on two sequences are retold here after patent US20240042019.

By UniProt entry, the sequences of proteins in these tests, tags left out. Residues count along the entry.
UniProt Q9NYK1, 27-1049: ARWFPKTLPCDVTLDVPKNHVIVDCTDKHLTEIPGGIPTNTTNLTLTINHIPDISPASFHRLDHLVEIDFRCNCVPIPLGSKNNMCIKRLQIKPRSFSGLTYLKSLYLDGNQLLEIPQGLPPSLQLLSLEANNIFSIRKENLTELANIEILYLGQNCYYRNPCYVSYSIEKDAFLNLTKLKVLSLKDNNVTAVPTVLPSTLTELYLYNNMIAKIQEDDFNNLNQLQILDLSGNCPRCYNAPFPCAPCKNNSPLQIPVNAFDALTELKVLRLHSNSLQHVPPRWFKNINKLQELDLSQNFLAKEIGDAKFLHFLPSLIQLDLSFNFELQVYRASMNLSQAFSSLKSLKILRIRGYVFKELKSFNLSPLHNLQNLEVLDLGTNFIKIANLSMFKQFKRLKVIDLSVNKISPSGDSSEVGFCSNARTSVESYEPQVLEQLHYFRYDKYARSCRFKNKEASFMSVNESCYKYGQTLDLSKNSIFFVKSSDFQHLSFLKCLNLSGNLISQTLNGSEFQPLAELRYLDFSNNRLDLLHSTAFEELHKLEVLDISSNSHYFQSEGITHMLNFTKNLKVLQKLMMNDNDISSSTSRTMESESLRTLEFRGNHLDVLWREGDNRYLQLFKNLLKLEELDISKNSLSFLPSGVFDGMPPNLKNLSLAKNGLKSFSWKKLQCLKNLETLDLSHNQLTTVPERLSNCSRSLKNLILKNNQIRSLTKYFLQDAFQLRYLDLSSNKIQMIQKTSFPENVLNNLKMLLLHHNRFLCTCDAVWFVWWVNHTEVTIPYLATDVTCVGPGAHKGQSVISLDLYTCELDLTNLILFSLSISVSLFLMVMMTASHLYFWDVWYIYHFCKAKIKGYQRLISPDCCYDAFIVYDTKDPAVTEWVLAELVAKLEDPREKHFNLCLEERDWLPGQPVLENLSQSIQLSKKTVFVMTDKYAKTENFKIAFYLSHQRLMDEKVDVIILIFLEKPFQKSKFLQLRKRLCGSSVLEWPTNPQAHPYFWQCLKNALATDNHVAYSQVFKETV
UniProt O00584, 25-256: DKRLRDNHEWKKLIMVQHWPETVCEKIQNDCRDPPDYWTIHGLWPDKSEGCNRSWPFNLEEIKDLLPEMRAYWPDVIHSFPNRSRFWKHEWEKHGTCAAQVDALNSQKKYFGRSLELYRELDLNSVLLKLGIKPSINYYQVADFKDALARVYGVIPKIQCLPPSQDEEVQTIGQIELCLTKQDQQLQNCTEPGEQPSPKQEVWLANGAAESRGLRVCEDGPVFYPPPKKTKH

For part of these data: The comparison behind a weaker result is the experiment's own reference, which may not be listed here. For part of these data: Tags and fusion partners may be left off the protein sequences shown.

Data set [1] deals with T1, TLR8 (Homo sapiens) (UniProt Q9NR97).
T1 sequence (looked up, limits assumed): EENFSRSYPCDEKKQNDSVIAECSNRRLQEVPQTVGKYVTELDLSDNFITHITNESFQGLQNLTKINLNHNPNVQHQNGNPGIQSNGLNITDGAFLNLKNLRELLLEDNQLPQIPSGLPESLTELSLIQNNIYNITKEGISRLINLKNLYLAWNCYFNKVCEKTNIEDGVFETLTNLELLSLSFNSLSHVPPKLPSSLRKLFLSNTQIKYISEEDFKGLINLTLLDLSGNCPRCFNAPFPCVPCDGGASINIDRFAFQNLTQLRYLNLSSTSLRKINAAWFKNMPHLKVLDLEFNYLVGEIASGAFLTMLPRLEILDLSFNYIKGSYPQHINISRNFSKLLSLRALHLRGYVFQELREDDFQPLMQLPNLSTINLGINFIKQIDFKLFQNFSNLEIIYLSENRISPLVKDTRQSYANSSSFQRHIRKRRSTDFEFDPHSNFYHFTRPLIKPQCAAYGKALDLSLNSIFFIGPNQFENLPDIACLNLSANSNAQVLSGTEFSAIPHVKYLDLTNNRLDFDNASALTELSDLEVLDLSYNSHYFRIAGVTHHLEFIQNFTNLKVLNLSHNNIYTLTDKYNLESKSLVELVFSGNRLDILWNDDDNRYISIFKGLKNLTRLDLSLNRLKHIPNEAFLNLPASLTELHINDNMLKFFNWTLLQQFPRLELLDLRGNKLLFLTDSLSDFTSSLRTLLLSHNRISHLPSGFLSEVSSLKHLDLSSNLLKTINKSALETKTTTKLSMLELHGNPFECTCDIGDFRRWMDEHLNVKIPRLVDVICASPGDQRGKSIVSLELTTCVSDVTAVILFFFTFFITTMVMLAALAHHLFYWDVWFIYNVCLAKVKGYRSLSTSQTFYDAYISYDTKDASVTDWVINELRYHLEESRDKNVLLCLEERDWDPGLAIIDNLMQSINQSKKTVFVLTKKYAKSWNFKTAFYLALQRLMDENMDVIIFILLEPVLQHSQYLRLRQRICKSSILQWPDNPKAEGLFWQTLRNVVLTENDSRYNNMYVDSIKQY
The experiment in a line: activity in cells. The conditions noted are these: protein in cells, protein details: endogenous in human PBMC (monocytes).

The target in data set [2] is TLR7 (Homo sapiens) (UniProt Q9NYK1). The data set is described as follows: activity in cells. The conditions noted are these: protein in cells, protein details: endogenous in human PBMC (pDC).
For data set [3], the target named is RNase T2 (UniProt O00584). The data set is described as follows: enzyme reaction in vitro. The conditions noted are these: purified recombinant protein, protein details: Origene recombinant.

In the case of CCGAGCCGCUUUUCCC [ORN7015], the functional effect entry was “less active” in data set [1] (2'-F U10 and U12, PS except PO 3' of each modified U, TNF-a greatly reduced vs ORN7013, p-L-arginine, variant of ORN7013); “active” in data set [2] (2'-F U10 and U12, PS except PO 3' of each modified U, IFN-a maintained or lower vs ORN7013, p-L-arginine, variant of ORN7013). Further, the “activity on this sequence” value in data set [3] (2'-F U10 and U12, PS except PO 3' of each modified U, slower than ORN7013, variant of ORN7013) is “less active”.

For the sequence CCGAGCCGCUUUUCCC [ORN7013], the functional effect result in data set [1] (full PS, TNF-a from PBMC, p-L-arginine) is given as “active”; in data set [2] (full PS, IFN-a from PBMC, p-L-arginine, limited TLR7 selectivity, no TLR7 activation with DOTAP) it was “active”. Also, the “activity on this sequence” value in data set [3] (full PS, 0.5 ug/ml RNase T2, 3-12 min, degraded faster than modified) is “active”.
